This note sets out measurements from patent US20260130970A1, “PRESERVED GIP/GLP AGONIST COMPOSITIONS” (ELI LILLY AND COMPANY, priority 2022, published 2026).

The data set concerns tirzepatide. In words: Solution NMR (1H-13C HSQC, ligand-observed NMR) of the interaction between tirzepatide and preservatives. Type of data set: binding.

Entries after “also recorded” stand apart in the source; their conditions may differ.

For `OCc1ccccc1` [benzyl alcohol], the “interaction of preservative with tirzepatide (1H-13C HSQC spectrum overlay, NMR)” value is listed as “No significant differences between the spectra; also recorded: no significant interaction with tirzepatide”.
With `Oc1ccccc1` [phenol], the “interaction of preservative with tirzepatide (1H-13C HSQC spectrum overlay, NMR)” value was “Significant differences between the spectra”.
